The campaign covered roughly 52,000 sequences. About 210 (0.4%) were called active.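 Rule for the calls: active = gene whose silencing raises cell survival under the drug, median off-target-corrected z-score across its silencing RNAs 2 or more; inactive = the rest.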 Some of the results follow.
Assay: Resistance to Poly (ADP-Ribose) Polymerase inhibitor: Gene Identification via Genome-wide siRNA Screen
Conditions: mouse BRCA2 R2336H ES cells, olaparib, CellTiter-Glo viability; hits give high values
How it was run: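 Genome-wide siRNA screen (3 siRNAs/gene, 20 nM) in mouse ES cells carrying hypomorphic BRCA2 R2336H; olaparib 500 nM added 48 h post-transfection, CellTiter-Glo viability 72 h later. Normalized to plate-median negative control; MAD z-scores, gene median, seed-adjusted.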

Row | Sequence | z-score
1 | GGUUAUUAUGUGUUUGACUTT against Sca7 | inactive: -0.168
2 | GGGACCACAAGUUUAGAACTT against 2410017P07Rik | inactive: 0.422
3 | GGAGCUAGCUGAGUUCAUGTT against Arhgap4 | inactive: -1.13
4 | GCCGAACUAUUGGCUCAAGTT against Gucy2e | inactive: -2.28
5 | GGCCAUCCAGUGCCUACAATT against BC022641 | inactive: -0.939
6 | GGUUGUCUGUCUUUUCCGGTT against Mta2 | inactive: 1.64
7 | CGACCUUUGAGACUGAAGATT against 8-Sep | inactive: -0.0158
8 | GGUUCAAAUACAUUGCCAUTT against Rabif | inactive: 0.135
9 | GCACUGAGCUGUGAAAACATT against Zfp98 | inactive: -2.06
10 | GGACUCCUAAUGAAUAAUCTT against BC052883 | inactive: 0.247
11 | GCAACUUGGCUACAAUUACTT against Dct | inactive: 0.693
12 | GGUGAUCAUCAGUGAUAAGTT against 1700016F23Rik | inactive: -0.251
13 | GGAAAAGAUGGCUGUUGUCTT against Banf1 | inactive: -1.07
14 | GGACCAGCUCAUCACCAAGTT against 5133400G04Rik | inactive: -1.7
15 | CCAAGGUAGAGGUGGCGAATT against Prkcabp | inactive: 0.682
16 | CCGCUGUUUUCAACUGUGCTT against Asb10 | inactive: 1.23
17 | GGGUCUUAAUGGGAUGGCUTT against 6030446N20Rik | inactive: -0.0309
18 | GGGACAGCAACAUUGUCAATT against Inhbc | inactive: 0.779
19 | AAAACCACUCUGUUAUCACTT against Olfr774 | inactive: 0.723
20 | GGGCUCCGAUGAAGAGAAUTT against Ctrb1 | inactive: -1.71
21 | GGAAAAUUAGUAACCUCCCTT against 1110013L07Rik | inactive: 0.281
22 | GCAUGUUUACGUUCCUGACTT against Slc2a12 | inactive: 0.28
23 | GGAUGUCCACAACAAGUGATT against Glra1 | inactive: 0.0139
24 | CGAAGGAGCAACGGUAAAATT against Fkbp5 | inactive: 1.09
25 | GGAUCAGCUGUCAUCUGUGTT against Ssb4 | inactive: 0.432
26 | CCCUAAUAUCACAUGGUGGTT against Cd79a | inactive: 0.376
27 | GCACGAAGGUCGUUAUUAUTT against 5031439A09Rik | inactive: 3.65

Row | Sequence | z-score
28 | GGCAAUCAGGACGUAAAGUTT against Kist | inactive: -0.373
29 | CCAGUGAACUUUAUGGACUTT against Gm111 | inactive: 0.0129
30 | CGUAGGACACGUGAAUUGUTT against F7 | inactive: 1.43
31 | GCAUGGCUAUUUAACAUUCTT against Rpl7l1 | inactive: -1.02
32 | GCAGACAGAGUUUUAACGUTT against Fancl | inactive: 1.1
33 | GGAUACAAUGUCCGAGUGCTT against Tie1 | inactive: 0.681
34 | GGCUCUAAAACUGUCAGACTT against 1700010M22Rik | inactive: 0.374
35 | GGCUCAAAGGAGGGUAGAGTT against 9230106L18Rik | inactive: -0.772
36 | GGAAAUGAUCACAGCUGGGTT against Ccl20 | inactive: -0.0712
37 | CCACUCUAAAGAGUUGUACTT against Surf1 | inactive: 0.448
38 | CCUGCACUACUGGAUUGGATT against Vill | inactive: 0.37
39 | GCCAAGAUUGUCAAAGAUCTT against Pgk1 | inactive: -0.242
40 | CGAUUCAAGGUAACAUAGATT against Esrrg | inactive: 1.7
41 | GCGCAAGUUGUGCAGAACUTT against Asb5 | inactive: -2.37
42 | GGGAUUGAAUCAUAGUUAGTT against 4933417L02Rik | inactive: 0.0448
43 | GCGAAACCGUGUUUCUCUATT against Skil | inactive: 0.0665
44 | CCCAGCUCUACUUUUUCUCTT against Olfr971 | inactive: 0.893
45 | GCACAGCCUGGUCAAAAACTT against S100a16 | inactive: -0.488
46 | GCCAAGAGGUUUUAUGGUUTT against Trim38 | inactive: -0.573
47 | GGAAGAUGUUACUUCAAAGTT against Anln | inactive: 0.0573
48 | GCAAACGCAGCAGAAUAGCTT against 2900091E11Rik | inactive: 0.534
49 | CCGCUUCAAUGUCUACUGCTT against Bcan | inactive: -1.09
50 | GGAACAAAGGAUCUGUCUGTT against Sec23a | inactive: -0.591
51 | CGCUCCUUUUUGUUAAUGCTT against Psmf1 | inactive: -0.919
52 | CCACUGUUACCAUUAUAAUTT against Pramel5 | inactive: 0.469
53 | AGAGACUAGGGAUGCAUCUTT against Olfr462 | inactive: 2.89
54 | CCGCCCUGAUUAUUGCCAUTT against Edar | inactive: 0.83

Row | Sequence | z-score
55 | GGGACACCGUCAAUCUUUATT against Frzb | inactive: 0.72
56 | GCAUCUUGUUUUAAUGACUTT against Car5b | inactive: 0.926
57 | GCCUCAAUUGUUUACUUAUTT against Edn2 | inactive: 0.0991
58 | GCAUUACUAAUCAAAGUGGTT against Abcb1b | inactive: 0.168
59 | GCAGGAAGUAAAAUCUCUUTT against 1300007B12Rik | inactive: -1.3
60 | GGCAAAAGAAUCGUUCUCATT against Ppat | inactive: -1
61 | GGUUCUGACAGACAAAAUUTT against 3300001P08Rik | inactive: -3.2
62 | CCAUUGUUUUCCAGUUCCATT against A930013B10Rik | inactive: -2.04
63 | GGAAGAGACCAAAGUAUAATT against Map2k7 | inactive: -2.03
64 | CGUACAUCCUAAAAGUGGGTT against Pcdhac1 | inactive: 0.075
65 | GCAUGUCAGACAAUAAAGUTT against D15Bwg0669e | inactive: 0.837
66 | GGGAAAAAUGGUCAGAUUATT against AI427652 | inactive: -0.0496
67 | GGAAUCUGUUGUUUCUCUUTT against Grcc3f | inactive: 0.476
68 | GCGUGUCUUGCUCUUUUGATT against Usp22 | inactive: 2.27
69 | CCAGAUCUCAAAAAUCCAUTT against Rage | inactive: 0.261
70 | GCUCCAACACCCUGUGAAUTT against Tessp2 | inactive: -1.93
71 | GAGAUGGACAAUCUCAUGGTT against Pcp2 | inactive: 3.87
72 | GGAGAGUUACGACGUAUUCTT against Ckb | inactive: 0.48
73 | GCUAUGUUGUUAAAACGAATT against Amotl2 | inactive: 0.313
74 | GGUCAAAAAAUAUUGAUGCTT against Itgav | inactive: 0.113
75 | GGCACGUACCAUUGAGAUATT against Ina | inactive: 0.318
76 | GAAUCCUUGUUCUAUGCUCTT against V1rd16 | inactive: 0.711
77 | GGGUCAUCAGAGCUGACAGTT against BC031407 | inactive: 0.592
78 | GGAUCUGUGAGAAUCAUAGTT against 9630005B12Rik | inactive: 0.0946
79 | GGAGAUUAACAACAUGAAGTT against Brap | inactive: -0.183
80 | GGGAACAGCAUCUCUGUCATT against E130115E03Rik | inactive: -0.944
81 | GGUACUGAAUUCAACAAACTT against BC004701 | inactive: 0.117

Exported as tab-separated lines: part of the list above
Row	Sequence	z-score
58	GCAUUACUAAUCAAAGUGGTT against Abcb1b	inactive: 0.168
59	GCAGGAAGUAAAAUCUCUUTT against 1300007B12Rik	inactive: -1.3
60	GGCAAAAGAAUCGUUCUCATT against Ppat	inactive: -1
61	GGUUCUGACAGACAAAAUUTT against 3300001P08Rik	inactive: -3.2
62	CCAUUGUUUUCCAGUUCCATT against A930013B10Rik	inactive: -2.04
63	GGAAGAGACCAAAGUAUAATT against Map2k7	inactive: -2.03
64	CGUACAUCCUAAAAGUGGGTT against Pcdhac1	inactive: 0.075
65	GCAUGUCAGACAAUAAAGUTT against D15Bwg0669e	inactive: 0.837
66	GGGAAAAAUGGUCAGAUUATT against AI427652	inactive: -0.0496
67	GGAAUCUGUUGUUUCUCUUTT against Grcc3f	inactive: 0.476
68	GCGUGUCUUGCUCUUUUGATT against Usp22	inactive: 2.27
69	CCAGAUCUCAAAAAUCCAUTT against Rage	inactive: 0.261
70	GCUCCAACACCCUGUGAAUTT against Tessp2	inactive: -1.93
71	GAGAUGGACAAUCUCAUGGTT against Pcp2	inactive: 3.87
72	GGAGAGUUACGACGUAUUCTT against Ckb	inactive: 0.48
73	GCUAUGUUGUUAAAACGAATT against Amotl2	inactive: 0.313
74	GGUCAAAAAAUAUUGAUGCTT against Itgav	inactive: 0.113
75	GGCACGUACCAUUGAGAUATT against Ina	inactive: 0.318
76	GAAUCCUUGUUCUAUGCUCTT against V1rd16	inactive: 0.711
77	GGGUCAUCAGAGCUGACAGTT against BC031407	inactive: 0.592

Quoted from above, entries 70–71
Row | Sequence | z-score
70 | GCUCCAACACCCUGUGAAUTT against Tessp2 | inactive: -1.93
71 | GAGAUGGACAAUCUCAUGGTT against Pcp2 | inactive: 3.87

(cont.)

Row | Sequence | z-score
82 | GGGAGAGAAUGUGUUUGGUTT against Rps14 | inactive: -3.15
83 | GGACUGAGAUCAAAUUCUCTT against Ptges2 | inactive: 0.596
84 | GCCACUGUUGUGUAAACUATT against 5830461H18Rik | inactive: -0.679
85 | CGGUGUUUUGGUUAAAUGUTT against Slamf6 | inactive: 0.853
86 | GGAAAGCAAGUGCACAAAUTT against Slco1a4 | inactive: -0.422
87 | UUCGUUCAAAUGAAGCUUCTT against AI505652 | inactive: -0.697
88 | GGCAAAUUUGGAUGUGUGUTT against Dsg3 | inactive: 2.9
89 | GCUUUGUGGCUCAAGCCAATT against 2810451A06Rik | inactive: 0.437
90 | GCCAAAUGGCUGUAUCUAUTT against Lgi2 | inactive: -0.388
91 | GGAGUGGCUCUGUUUGAACTT against Bsn | inactive: 0.214
92 | GGUUCCACUCUGAACUUAATT against Es1 | inactive: -0.0429
93 | GGGAAUUCACACUGUCUGGTT against 0610011I04Rik | inactive: -1.01
94 | GGGUCUCUAUGGAAUCAAUTT against Ldh1 | inactive: 0.295
95 | GGUCAUCGUGUUUGGUUUCTT against BC057552 | inactive: 0.0965
96 | GGAUGCGGAUCAGAACUACTT against C1ql4 | inactive: -0.982
97 | GCUGAUGUCUGAGGGUGUATT against 1700028O09Rik | inactive: 0.0462
98 | GCGACACUGAAUUCUUUUATT against Ccng2 | inactive: 2.31
99 | GGGACCAACUCCUAACAGATT against Csf2rb1 | inactive: 2.11
100 | GACCUACUUUCCUCACUUUTT against Hba-a1 | inactive: 0.205
101 | GGAAAAUUGUCCAUGUAAATT against Tex15 | inactive: -0.464
102 | GUCACCUAGCCUUUGUUGATT against Olfr1038 | inactive: 0.504
103 | GGUCUUUAUACAGAGAUAATT against Narg1 | inactive: 0.392
104 | GGUAACAAAUGCUGUUUUATT against Cul1 | inactive: -0.136
105 | GGUUAUAUAAGCAUCAAGGTT against Adamts18 | inactive: 0.256

Reference: PubChem BioAssay AID1347423 (Functional Genomics Laboratory (NCATS/FGL), 2020)
